Results published in article PMC6587950.
No constants are given. Whether binding was seen depends on the method and setting. In cells and extracts the contact can be indirect. Some results given as binding are weak or reduced against the parent protein; the word gives no strength.

Sequences of proteins named here, by UniProt entry; tags and fusion partners are left off.
UniProt P22366: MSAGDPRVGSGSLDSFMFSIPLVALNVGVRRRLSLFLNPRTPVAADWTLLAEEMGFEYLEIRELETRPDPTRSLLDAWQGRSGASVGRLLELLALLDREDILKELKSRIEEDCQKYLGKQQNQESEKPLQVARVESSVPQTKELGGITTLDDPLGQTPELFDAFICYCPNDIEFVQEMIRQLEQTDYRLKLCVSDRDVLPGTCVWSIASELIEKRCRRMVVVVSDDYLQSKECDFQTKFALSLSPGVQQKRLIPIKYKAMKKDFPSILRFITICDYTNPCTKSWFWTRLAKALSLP

Target: T1, single Ig IL-1-related receptor (mouse (endogenous in RAW264.7)) (UniProt Q9JLZ8)
T1 sequence: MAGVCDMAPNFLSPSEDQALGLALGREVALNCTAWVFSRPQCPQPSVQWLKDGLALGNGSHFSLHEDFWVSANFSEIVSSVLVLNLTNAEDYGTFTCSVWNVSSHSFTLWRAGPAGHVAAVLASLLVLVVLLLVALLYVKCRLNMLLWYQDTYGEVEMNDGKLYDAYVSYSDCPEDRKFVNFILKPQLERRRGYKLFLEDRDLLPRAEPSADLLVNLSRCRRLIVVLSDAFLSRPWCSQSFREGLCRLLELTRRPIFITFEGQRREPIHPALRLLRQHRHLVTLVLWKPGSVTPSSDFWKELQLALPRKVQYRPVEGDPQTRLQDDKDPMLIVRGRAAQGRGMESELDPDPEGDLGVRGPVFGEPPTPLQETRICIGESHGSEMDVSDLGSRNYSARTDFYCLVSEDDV
Assay: co-IP; RAW264.7 cells treated with M-CSF (50 ng/ml), RANKL (50 ng/ml) and IL-37b (200 ng/ml) for 48 hr; lysed in RIPA buffer; supernatant incubated with SIGIRR antibody (1:50) or mouse IgG overnight at 4°C, protein A/G magnetic beads 4 hr at 4°C; blot for SIGIRR, MyD88 and GAPDH

## myeloid differentiation factor 88 (from UniProt P22366 1-296)
  binding: binds
